The record followed here is article PMC9352765.

The chains behind the UniProt entries cited, without tags or fusion partners.
UniProt A0A8I3MKE1: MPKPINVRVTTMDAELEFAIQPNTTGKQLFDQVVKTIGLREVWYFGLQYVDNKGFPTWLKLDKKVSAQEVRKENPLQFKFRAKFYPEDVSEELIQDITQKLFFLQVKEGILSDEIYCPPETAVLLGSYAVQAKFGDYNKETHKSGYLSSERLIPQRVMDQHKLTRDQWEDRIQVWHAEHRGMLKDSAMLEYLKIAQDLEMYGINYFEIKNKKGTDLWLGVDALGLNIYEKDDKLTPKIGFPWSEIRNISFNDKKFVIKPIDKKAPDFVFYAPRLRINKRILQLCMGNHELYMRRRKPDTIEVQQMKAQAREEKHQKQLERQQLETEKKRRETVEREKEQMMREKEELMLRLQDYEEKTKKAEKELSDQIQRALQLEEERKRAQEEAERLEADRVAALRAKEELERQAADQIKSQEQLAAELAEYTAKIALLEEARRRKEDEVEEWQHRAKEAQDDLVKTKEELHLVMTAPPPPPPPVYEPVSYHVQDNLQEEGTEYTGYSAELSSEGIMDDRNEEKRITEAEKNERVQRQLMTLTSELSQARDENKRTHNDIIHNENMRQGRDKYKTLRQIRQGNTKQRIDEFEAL

Results are given in words; binding and its absence hold for the method and conditions named. In cells and extracts the contact can be indirect. These calls come from enrichment with a bait or labelling near it, and not all partners need be listed.

The assay concerns the target T1, Syt13-BirA recombinant protein (mouse) (UniProt Q9EQT6).
T1 sequence: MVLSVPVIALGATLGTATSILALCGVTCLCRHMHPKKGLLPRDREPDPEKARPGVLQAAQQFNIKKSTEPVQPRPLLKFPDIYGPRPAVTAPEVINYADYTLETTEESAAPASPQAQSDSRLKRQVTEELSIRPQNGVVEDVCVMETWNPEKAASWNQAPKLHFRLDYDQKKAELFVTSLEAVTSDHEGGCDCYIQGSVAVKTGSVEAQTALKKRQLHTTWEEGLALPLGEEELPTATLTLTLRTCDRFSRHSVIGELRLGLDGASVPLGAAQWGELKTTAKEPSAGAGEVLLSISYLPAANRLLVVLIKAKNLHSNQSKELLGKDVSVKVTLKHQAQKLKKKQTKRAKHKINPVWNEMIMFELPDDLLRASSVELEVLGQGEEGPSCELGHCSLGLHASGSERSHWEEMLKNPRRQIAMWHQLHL
Nature of the assay: proximity labelling; BioID: MDCK cells stably expressing Syt13-BirA (control: Syt13), 50 µM biotin for 16 h; lysate on NeutrAvidin agarose beads; western blot.
In the case of EBP50 (canine (endogenous in MDCK)), the binding entry is “binds”.

On to Ezrin (from UniProt A0A8I3MKE1 1-586), for which the binding entry is “binds”.

With Merlin (canine (endogenous in MDCK)), the binding result was “binds”.

For “atypical protein kinase C (canine (endogenous in MDCK))”, the binding entry is recorded as “binds”.
